Data taken from ChEMBL document CHEMBL3988442, “University of Dundee, Small-Polar-MMV Screening Library” (2021).

Chains of the proteins cited; added tags and fusions are not shown. Residues count along the entry.
UniProt Q8IDJ8, 1-583: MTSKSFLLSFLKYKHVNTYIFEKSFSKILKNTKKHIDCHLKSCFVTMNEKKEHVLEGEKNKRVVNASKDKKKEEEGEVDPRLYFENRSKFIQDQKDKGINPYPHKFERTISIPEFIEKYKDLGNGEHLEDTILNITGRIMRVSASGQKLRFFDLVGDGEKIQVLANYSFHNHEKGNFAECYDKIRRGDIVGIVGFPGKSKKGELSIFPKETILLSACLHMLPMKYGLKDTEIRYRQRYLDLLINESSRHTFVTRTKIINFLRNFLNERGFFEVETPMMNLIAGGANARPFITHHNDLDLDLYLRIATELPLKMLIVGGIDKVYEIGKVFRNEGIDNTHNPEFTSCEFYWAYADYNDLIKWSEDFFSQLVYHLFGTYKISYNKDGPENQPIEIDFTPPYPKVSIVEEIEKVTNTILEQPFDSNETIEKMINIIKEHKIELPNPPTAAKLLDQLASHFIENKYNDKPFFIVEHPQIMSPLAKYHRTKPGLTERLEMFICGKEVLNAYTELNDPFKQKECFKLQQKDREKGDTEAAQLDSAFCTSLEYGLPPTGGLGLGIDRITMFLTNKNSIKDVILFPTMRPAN
UniProt P9WPC5, whole entry: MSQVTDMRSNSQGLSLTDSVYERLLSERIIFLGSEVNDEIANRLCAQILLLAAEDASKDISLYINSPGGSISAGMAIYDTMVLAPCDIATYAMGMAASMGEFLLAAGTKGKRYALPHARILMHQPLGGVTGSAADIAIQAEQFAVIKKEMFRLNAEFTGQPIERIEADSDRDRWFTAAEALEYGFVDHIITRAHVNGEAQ
UniProt P9WPC3, whole entry partner: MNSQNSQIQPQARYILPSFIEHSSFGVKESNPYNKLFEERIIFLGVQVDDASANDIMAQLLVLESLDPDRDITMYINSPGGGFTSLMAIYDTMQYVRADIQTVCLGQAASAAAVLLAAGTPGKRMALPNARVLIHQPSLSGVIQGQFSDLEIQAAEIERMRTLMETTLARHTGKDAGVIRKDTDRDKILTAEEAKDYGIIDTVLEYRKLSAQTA

A: 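Enzyme assay of the cytosolic lysyl-tRNA synthetase in 384-well plates, read by luminescence. Target: Lysine-tRNA ligase, Plasmodium falciparum 3D7 (UniProt Q8IDJ8). Tested at 30 µM. Direction is inferred from only a few compounds that gave an IC50; most scored high, so higher reads as stronger inhibition. Size under these conditions: about 69,000 compounds, about 49 of them at 50% or above in at least one test.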
B: 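ClpP1P2, Mycobacterium tuberculosis (UniProt P9WPC5 and UniProt P9WPC3). Protease assay of ClpP1P2, read by the AMC dye that it sets free. Concentration: 50 µM. Direction is inferred from only a few compounds that gave an IC50; most scored high, so higher reads as stronger inhibition. Most other retested compounds had strongly negative values. About 69,000 compounds were tested under these conditions; 0.015% (about 10) showed 50% or more at least once.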

Results are given as percent effect.
How 0% and 100% were set is not recorded. Most values in the screen are low, and negative values occur.
This is an unselected part of the compounds tested.

structure	A	B
Cc1ccc(NC2CCCN(Cc3ccc(Cl)cc3)C2)nn1 (stereo not given)	3.332	-9.923
CC(C)CCNc1nc(C(=O)NC2CC2)cs1	3.248	-9.955
CCN1CC2(CC1=O)CN(C(C)=O)CCN(S(C)(=O)=O)C2 (stereo not given)	0.9	-0.1516
Cc1nc(C2CCCN2CCCS(=O)(=O)N(C)C)no1 (stereo not given)	-0.1091	21.58
Cc1csc(N2CCN(CC(=O)Nc3cccnc3)CC2C)n1 (stereo not given)	0.5924	-15.55
COCC(=O)N[C@H](C)c1c(-c2ccc(OC)cc2)noc1C(=O)O	4.136	2.926
CSc1ccc(OCCN2CCNC(=O)C2C)cc1 (stereo not given)	3.317	-10.07
Cc1noc(NC(=O)c2ccc(Br)o2)n1	1.958	-5.056
COCCN1CCC(C(=O)N(C)Cc2cccc(Cl)c2)C1 (stereo not given)	-4.57	6.955
Cc1ccc(N2CCCC(NCc3ccc4c(c3)CCO4)C2)nn1 (stereo not given)	-1.475	-4.221
Cc1cc(C)n(C2CCCN(C(=O)CN(C)c3cnccn3)C2)n1 (stereo not given)	1.88	-21.17
O=C(c1ccoc1)N1CCCC2(CCC(=O)N2Cc2cccnc2)C1 (stereo not given)	1.643	-1.703
O=C(CCCOc1ccccc1)N1CCCC(n2cncn2)C1 (stereo not given)	-0.8099	-16.78
O=C1CC(c2ccc(C(=O)O)cc2)c2ncn(-c3ccccc3)c2N1 (stereo not given)	14.36	6.811
Cc1cnn(CC2CCCN2Cc2nnc(C3CC3)o2)c1 (stereo not given)	-1.968	-7.719
CCC1=N[C@@]2(CC[C@@H]3CN(C(=O)NCC(C)C)C[C@@H]32)C(=O)N1CC(C)C	2.207	6.908
CC(=O)N1CCCC1c1cccc(Oc2ccccc2F)n1 (stereo not given)	4.309	-9.745
COc1ccc(N2CCN(C(=O)COc3nccc(C)n3)CC2)cc1	-1.244	-0.8217
O=C(CN1CCCC(c2ccn[nH]2)C1)Nc1nc2c(s1)CCCC2 (stereo not given)	3.602	-4.591
CCN(C(c1ccc(OC)cc1)c1cccnc1)S(C)(=O)=O (stereo not given)	4.307	16.67
CC1CN(C)CCN1C(=O)c1ccc(-n2cnnc2)cc1 (stereo not given)	0.4174	-14.11
CCS(=O)(=O)N1CCc2ccc(NC(=O)NC(C)(C)C)cc21	6.152	1.011
COc1cccc(-n2cc(-c3ccnc(N[C@@H](CO)C(C)C)n3)cn2)c1	1.113	1.425
O=C(NCCNc1ccc(C(F)(F)F)cn1)c1ccc(Br)cc1	-0.1219	-38.31
Cc1cccc(-c2nnn3c2COC(CNS(=O)(=O)C2CC2)C3)c1 (stereo not given)	9.804	-8.974
Cn1nc(C(=O)N2CCSCC2)cc1NC(=O)c1ccccc1	7.082	10.42
CCC(=O)N1CCC2(COCc3c(C)nc(N(C)C)nc32)C1 (stereo not given)	0.5419	-0.5818
CCC(C)Oc1ccc(CNCCNS(C)(=O)=O)cc1Cl (stereo not given)	4.06	-17.51
O=C(C1CC=CC1)N1CC[C@@H]2O[C@H](COCC3CCOCC3)CC[C@@H]21	2.639	-0.2381
Cc1ncsc1-c1nnc(C2CCN(Cc3cccc(F)c3F)CC2)o1	-3.73	6.88
Cc1ncncc1-c1ccnc(N)n1	2.2	2.802
CC(C)C(=O)N1CCCC(c2cncc(Oc3cccnc3)n2)C1 (stereo not given)	3.695	-6.926
CC(=O)NCC(=O)N1CCN(Cc2cccnc2)c2ncccc2C1	0.8226	-0.7763
c1csc(CN2CCC3(CCCN3CC3CC3)CC2)n1	-1.131	7.455
Cn1ncc2c(=O)[nH]c(CN3CCCC3Cc3ccccc3)nc21 (stereo not given)	4.261	3.889
Cc1cc(-c2nc(C3(NC(=O)OC(C)(C)C)CCC3)no2)on1	2.725	-3.699
CC(NC(=O)c1ccoc1)C(=O)N(C)Cc1cccc(C(F)(F)F)c1 (stereo not given)	1.178	-1.535
CCc1noc(CN2CCC(C(=O)Nc3cnn(CC)c3)CC2)n1	1.226	8.911
COc1ccccc1OC1CCN(c2nccc(N)n2)CC1	-2.767	5.145
COc1ccc(-c2noc([C@@H]3C[C@@H](O)CN3C3CCN(C)CC3)n2)cc1	3.909	-0.9082
Cc1ncc(CN2CCOC(c3ccc(-c4ccccc4F)cn3)C2)s1 (stereo not given)	0.2227	15.74
CCC(c1ccccc1)N1CCN(CCO)CC1 (stereo not given)	0.8695	-7.201
COc1cccc2ccc(CN3CCN(c4cccnc4)CC3)nc12	3.687	-12.7
O=C(Nc1nccs1)NC1CCOc2ccccc21 (stereo not given)	2.766	5.157
COCC1c2c(cnn2CC2CC2)CCN1Cc1cc(C)on1 (stereo not given)	2.264	-14.43
C=C(C)COc1cccc(CNC(COC)c2ccnn2C)c1 (stereo not given)	1.164	-6.207
N#Cc1ccnc(N2CCN(CC(O)c3ccc(F)cc3)CC2)c1 (stereo not given)	5.22	-0.858
COCC(NC(=O)c1cnn(C)c1)c1cccc(C(F)(F)F)c1 (stereo not given)	1.426	-6.839
CSc1ccccc1CN1C[C@H]2C(=O)N(CC3CC3)C[C@@]2(C(=O)O)C1	9.28	0.6536
CN1CCC(N2CCOC[C@H]2c2nc(C(C)(C)C)c[nH]2)CC1	3.228	-4.242
c1cnc2nc(N3CCCC3c3nnc4n3CCCCC4)ccc2n1 (stereo not given)	-1.04	-1510
CC(C(=O)N1CCCC1)N1CCC(c2nccn2CC2CCC2)CC1 (stereo not given)	4.837	-4.321
Cc1ccc(-n2nnc(C(=O)NC(C)C)c2C2CC2)cc1	1.317	-32.23
O=C(CN1CCOc2ccc(Cl)cc21)NCCCn1ccnc1	4.569	0.5154
O=C(CN1CCOC(c2ccc(Cl)s2)C1)NCc1ccco1 (stereo not given)	-6.688	-23.63

For reference, 3 entries once more:

{"structure": "CCN(C(c1ccc(OC)cc1)c1cccnc1)S(C)(=O)=O", "stereo": "stereo not given", "A": 4.307, "B": 16.67}
{"structure": "O=C(c1ccoc1)N1CCCC2(CCC(=O)N2Cc2cccnc2)C1", "stereo": "stereo not given", "A": 1.643, "B": -1.703}
{"structure": "Cc1cc(-c2nc(C3(NC(=O)OC(C)(C)C)CCC3)no2)on1", "A": 2.725, "B": -3.699}